# According to the supplement of paper PMC8728848:
# This is one part of the list.
# B1: SJCP3842 (Schistosoma japonicum) (protein)
# chain: MFKMRIINLVNISTVLLLINLLQTKSRLVGKENGFMLTVSIYGAQLSDKMTSVPVSWTIDYEDPEKSAFKKLVTDSCDTFSEYVKSQIPKGSVDGQCTSHIFQRPGSGSGVSISLTLSFIYVDVTQPDTVALKTELEKHFANFVTIHSHKITQAQFRINQKAIVIPTGDKDAIDGSKWKIIAIIALVALAIVVIGGFIYICVK
# What was measured:
# Test in all cases: glycan array binding signal (z-score within array); higher = stronger binding
# Conditions in all cases: glycan notation: IUPAC condensed, linker removed
# [1] = molecular target: Neu5Ac(a2-6)Gal(b1-4)GlcNAc(b1-3)Gal(b1-4)GlcNAc(b1-3)Gal(b1-4)GlcNAc(b1-2)Man(a1-3)[Neu5Ac(a2-6)Gal(b1-4)GlcNAc(b1-3)Gal(b1-4)GlcNAc(b1-3)Gal(b1-4)GlcNAc(b1-2)Man(a1-6)]GalNAc
# In short: (§1)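 The binding signal is a Z-score computed within each array and averaged over linkers. Arrays of the same protein sequence at different concentrations or buffers were also averaged together. Data originate from 3228 arrays in the Consortium for Functional Glycomics database, kept only where the protein sequence was available.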
# [2] = molecular target: Neu5Ac(a2-6)Gal(b1-4)GlcNAc(b1-3)Gal(b1-4)GlcNAc(b1-3)GalNAc
# In short: as §1
# [3] = molecular target: Neu5Ac(a2-6)Gal(b1-4)GlcNAc(b1-3)Gal(b1-4)GlcNAc(b1-3)[Neu5Ac(a2-6)Gal(b1-4)GlcNAc(b1-3)Gal(b1-4)GlcNAc(b1-6)]GalNAc
# In short: as §1
# [4] = molecular target: Neu5Ac(a2-6)Gal(b1-4)GlcNAc(b1-3)Gal(b1-4)GlcNAc(b1-6)[Gal(b1-3)]GalNAc
# In short: as §1
# [5] = molecular target: Neu5Ac(a2-6)Gal(b1-4)GlcNAc(b1-3)Gal(b1-4)[Fuc(a1-3)]GlcNAc(b1-3)Gal(b1-4)[Fuc(a1-3)]GlcNAc
# In short: as §1
# [6] = molecular target: Neu5Ac(a2-6)Gal(b1-4)GlcNAc(b1-3)GalNAc
# In short: as §1
# [7] = molecular target: Neu5Ac(a2-6)Gal(b1-4)GlcNAc(b1-3)[Neu5Ac(a2-6)Gal(b1-4)GlcNAc(b1-6)]GalNAc
# In short: as §1
# [8] = molecular target: Neu5Ac(a2-6)Gal(b1-4)GlcNAc(b1-6)GalNAc
# In short: as §1
# [9] = molecular target: Neu5Ac(a2-6)Gal(b1-4)GlcNAc(b1-6)[Gal(b1-3)GlcNAc(b1-3)]Gal(b1-4)Glc
# In short: as §1
# [10] = molecular target: Neu5Ac(a2-6)Gal(b1-4)GlcNAc(b1-6)[Gal(b1-3)]GalNAc
# In short: as §1
# [11] = molecular target: Neu5Ac(a2-6)Gal(b1-4)GlcNAc6S
# In short: as §1
# Neu5Ac(a2-6)GalNAc = molecular target: Neu5Ac(a2-6)GalNAc
# In short: as §1
# [12] = molecular target: Neu5Ac(a2-6)GalNAc(b1-4)GlcNAc
# In short: as §1
# [13] = molecular target: Neu5Ac(a2-6)GalNAc(b1-4)GlcNAc6S
# In short: as §1
# [14] = molecular target: Neu5Ac(a2-6)GlcNAc(b1-4)GlcNAc
# In short: as §1
# [15] = molecular target: Neu5Ac(a2-6)GlcNAc(b1-4)GlcNAc(b1-4)GlcNAc
# In short: as §1
# Neu5Ac(a2-8)Neu5Ac = molecular target: Neu5Ac(a2-8)Neu5Ac
# In short: as §1
# [16] = molecular target: Neu5Ac(a2-8)Neu5Ac(a2-3)Gal(b1-3)GalNAc(b1-4)[Neu5Ac(a2-3)]Gal(b1-4)Glc
# In short: as §1
# [17] = molecular target: Neu5Ac(a2-8)Neu5Ac(a2-3)Gal(b1-3)GalNAc(b1-4)[Neu5Ac(a2-8)Neu5Ac(a2-3)]Gal(b1-4)Glc
# In short: as §1
# [18] = molecular target: Neu5Ac(a2-8)Neu5Ac(a2-3)Gal(b1-4)Glc
# In short: as §1
# [19] = molecular target: Neu5Ac(a2-8)Neu5Ac(a2-3)Gal(b1-4)GlcNAc
# In short: as §1
# [20] = molecular target: Neu5Ac(a2-8)Neu5Ac(a2-3)[Gal(b1-3)GalNAc(b1-4)]Gal(b1-4)Glc
# In short: as §1
# [21] = molecular target: Neu5Ac(a2-8)Neu5Ac(a2-3)[GalNAc(b1-4)]Gal(b1-4)Glc
# In short: as §1
# [22] = molecular target: Neu5Ac(a2-8)Neu5Ac(a2-8)Neu5Ac
# In short: as §1
# [23] = molecular target: Neu5Ac(a2-8)Neu5Ac(a2-8)Neu5Ac(a2-3)Gal(b1-4)Glc
# In short: as §1
# [24] = molecular target: Neu5Ac(a2-8)Neu5Ac(a2-8)Neu5Ac(a2-3)[Gal(b1-3)GalNAc(b1-4)]Gal(b1-4)Glc
# In short: as §1
# [25] = molecular target: Neu5Ac(a2-8)Neu5Ac(a2-8)Neu5Ac(a2-3)[GalNAc(b1-4)]Gal(b1-4)Glc
# In short: as §1
# [26] = molecular target: Neu5Ac(a2-8)Neu5Ac(a2-8)Neu5Ac(a2-8)Neu5Ac(a2-3)[GalNAc(b1-4)]Gal(b1-4)Glc
# In short: as §1
# [27] = molecular target: Neu5Ac(a2-8)Neu5Gc(a2-3)Gal(b1-4)GlcNAc
# In short: as §1
# [28] = molecular target: Neu5Ac(b2-6)Gal(b1-4)GlcNAc
# In short: as §1
# Neu5Ac(b2-6)GalNAc = molecular target: Neu5Ac(b2-6)GalNAc
# In short: as §1
# [29] = molecular target: Neu5Ac9Ac(a2-3)Gal(b1-3)GlcNAc
# In short: as §1
# [30] = molecular target: Neu5Ac9Ac(a2-3)Gal(b1-4)GlcNAc
# In short: as §1
# [31] = molecular target: Neu5Ac9Ac(a2-6)Gal(b1-4)GlcNAc
# In short: as §1
# [32] = molecular target: Neu5Gc(a2-3)Gal(b1-3)GlcNAc
# In short: as §1
# [33] = molecular target: Neu5Gc(a2-3)Gal(b1-3)[Fuc(a1-4)]GlcNAc
# In short: as §1
# Neu5Gc(a2-3)Gal(b1-4)Glc = molecular target: Neu5Gc(a2-3)Gal(b1-4)Glc
# In short: as §1
# [34] = molecular target: Neu5Gc(a2-3)Gal(b1-4)GlcNAc
# In short: as §1
# [35] = molecular target: Neu5Gc(a2-3)Gal(b1-4)GlcNAc(b1-3)Gal(b1-4)GlcNAc(b1-2)Man(a1-3)[Neu5Gc(a2-3)Gal(b1-4)GlcNAc(b1-3)Gal(b1-4)GlcNAc(b1-2)Man(a1-6)]Man(b1-4)GlcNAc(b1-4)GlcNAc
# In short: as §1
# [36] = molecular target: Neu5Gc(a2-3)Gal(b1-4)[Fuc(a1-3)]GlcNAc
# In short: as §1
# [37] = molecular target: Neu5Gc(a2-6)Gal(b1-4)GlcNAc
# In short: as §1
# Neu5Gc(a2-6)GalNAc = molecular target: Neu5Gc(a2-6)GalNAc
# In short: as §1
# [38] = molecular target: Neu5Gc(a2-8)Neu5Ac(a2-3)Gal(b1-4)GlcNAc
# In short: as §1
# [39] = molecular target: Neu5Gc(a2-8)Neu5Gc(a2-3)Gal(b1-4)GlcNAc
# In short: as §1
# [40] = molecular target: Neu5Gc(a2-8)Neu5Gc(a2-3)Gal(b1-4)GlcNAc(b1-3)Gal(b1-4)GlcNAc
# In short: as §1
binder,measurement,setting,value
B1,glycan array binding signal (z-score),[1],4.64
same,glycan array binding signal (z-score),[2],-1.79
same,glycan array binding signal (z-score),[3],0.818
same,glycan array binding signal (z-score),[4],0.212
same,glycan array binding signal (z-score),[5],0.234
same,glycan array binding signal (z-score),[6],-0.443
same,glycan array binding signal (z-score),[7],0.9
same,glycan array binding signal (z-score),[8],-0.332
same,glycan array binding signal (z-score),[9],-0.388
same,glycan array binding signal (z-score),[10],0.634
same,glycan array binding signal (z-score),[11],-1.53
same,glycan array binding signal (z-score),Neu5Ac(a2-6)GalNAc,-0.962
same,glycan array binding signal (z-score),[12],-1.98
same,glycan array binding signal (z-score),[13],-0.794
same,glycan array binding signal (z-score),[14],-0.213
same,glycan array binding signal (z-score),[15],0.404
same,glycan array binding signal (z-score),Neu5Ac(a2-8)Neu5Ac,-0.258
same,glycan array binding signal (z-score),[16],0.167
same,glycan array binding signal (z-score),[17],3.14
same,glycan array binding signal (z-score),[18],-1.34
same,glycan array binding signal (z-score),[19],-1.33
same,glycan array binding signal (z-score),[20],-0.167
same,glycan array binding signal (z-score),[21],1.3
same,glycan array binding signal (z-score),[22],-0.395
same,glycan array binding signal (z-score),[23],1.23
same,glycan array binding signal (z-score),[24],-0.504
same,glycan array binding signal (z-score),[25],0.881
same,glycan array binding signal (z-score),[26],-0.332
same,glycan array binding signal (z-score),[27],-1.69
same,glycan array binding signal (z-score),[28],0.469
same,glycan array binding signal (z-score),Neu5Ac(b2-6)GalNAc,-0.416
same,glycan array binding signal (z-score),[29],0.1
same,glycan array binding signal (z-score),[30],-0.04
same,glycan array binding signal (z-score),[31],1.5
same,glycan array binding signal (z-score),[32],-0.593
same,glycan array binding signal (z-score),[33],-0.715
same,glycan array binding signal (z-score),Neu5Gc(a2-3)Gal(b1-4)Glc,0.564
same,glycan array binding signal (z-score),[34],-1.73
same,glycan array binding signal (z-score),[35],0.815
same,glycan array binding signal (z-score),[36],0.854
same,glycan array binding signal (z-score),[37],1.68
same,glycan array binding signal (z-score),Neu5Gc(a2-6)GalNAc,-0.218
same,glycan array binding signal (z-score),[38],-0.463
same,glycan array binding signal (z-score),[39],-0.602
same,glycan array binding signal (z-score),[40],-1.83

# Not a retest: an excerpt of the list.
binder,measurement,setting,value
B1,glycan array binding signal (z-score),[35],0.815
same,glycan array binding signal (z-score),[36],0.854
same,glycan array binding signal (z-score),[37],1.68
same,glycan array binding signal (z-score),Neu5Gc(a2-6)GalNAc,-0.218
